Results on three compounds are retold here after the supplement of paper PMC7024190.

Some of the results follow. Single values are uncertain here, since repeats match poorly.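 The cells were human embryonic kidney cells carrying a Renilla luciferase gene, driven by the HSV-TK promoter, on a plasmid put in briefly by transfection. This is the first-round screen of about ten thousand compounds, looking for ones that raise reporter output.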

The assay deals with HEK 293FT. In words: log relative Renilla luciferase luminescence (reporter expression vs reference, reference not stated) (log (base not stated)); higher = higher recombinant reporter expression. Particulars: 10 µM; time after transfection 48 h. The method, then:
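HEK 293FT cells transiently transfected with pRL-TK (Renilla luciferase) were treated with compounds at 10 uM and luminescence was read about 42 h later. Values are log relative Renilla luminescence (log base and reference not stated). Single-pass screen; ICCB Known Bioactives library.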
On to `C=C1CC[C@H](O)C/C1=C/C=C1\CCC[C@]2(C)[C@@H]([C@H](C)CCCC(C)(C)O)CC[C@@H]12` [25-Hydroxyvitamin D3], for which the log stood at 0.162.
With `COc1cc(/C=C/C(=O)CC(=O)/C=C/c2ccc(O)c(OC)c2)ccc1O` [Curcumin], the log is -0.526.
For the compound `Cc1coc2c1C(=O)C(=O)c1c-2ccc2c1CCCC2(C)C` [Tanshinone IIA], the log was -0.064.
